Results from patent US20230174582A1 (ICHIMARU PHARCOS CO., LTD, priority 2020, published 2023).
Positions of bridges follow the written chain, without caps; N, C: chain ends. Non-standard residues stand in square brackets, D forms with d. *: point of attachment. Biotin = O=C1N[C@H]2[C@H](CS[C@H]2CCCCC(=O)*)N1; Nle = CCCC[C@H](N)C(=O)O; Dap = NC[C@H](N)C(=O)O

Test: peptide made by a vendor (Fmoc solid-phase peptide synthesis; HATU/DIEA)
Settings: whole synthesis

| Substance | purity (crude or final not stated) [%] |
| --- | --- |
| Ac-C(Cys-Pro-Pro-Tyr-Leu-Pro-Dap-Tyr-Leu-Cys)-Dap-Leu-aMdeLeu-NH2 | 95.46 |
| Ac-C(Cys-Pro-Pro-Tyr-Leu-Pro-Dap-Tyr-Leu-Cys)-Dap-aMeLeu-Ile-NH2 | 98.8 |
| Ac-CPPYLPRRLCTLLLRS-OH (disulfide 1-10; SMILES CC(=O)N[C@H]1CSSC[C@@H](C(=O)N[C@H](C(=O)N[C@@H](CC(C)C)C(=O)N[C@@H](CC(C)C)C(=O)N[C@@H](CC(C)C)C(=O)N[C@@H](CCCNC(=N)N)C(=O)N[C@@H](CO)C(=O)O)[C@@H](C)O)NC(=O)[C@H](CC(C)C)NC(=O)[C@H](CCCNC(=N)N)NC(=O)[C@H](CCCNC(=N)N)NC(=O)[C@@H]2CCCN2C(=O)[C@H](CC(C)C)NC(=O)[C@H](Cc2ccc(O)cc2)NC(=O)[C@@H]2CCCN2C(=O)[C@@H]2CCCN2C1=O) | 97.52 |
| Ac-CPPYLP[Dap]YLC[Dap][Nle]I-NH2 (disulfide 1-10) | 99.91 |
| Ac-c(Cys-Pro-Pro-4amF-Leu-Pro-Dap-Tyr-Leu-Cys)-Dap-Leu-Ile-NH2 | 95.32 |
| Ac-c(Cys-Pro-Pro-4amideF-Leu-Pro-Dap-Tyr-Leu-Cys)-Dap-Let-Ile-NH2 | 99.07 |
| Ac-c(Cys-Pro-Pro-4fF-Leu-Pro-Dap-Tyr-Leu-Cys)-Dap-Leu-Ile-NH2 | 98.74 |
| Ac-c(Cys-Pro-Pro-Tyr-Leu-Pro-Dap-4AcF-Leu-Cys)-Dap-Leu-Ile-NH2 | 97.44 |
| Ac-c(Cys-Pro-Pro-Tyr-Leu-Pro-Dap-4amideF-Leu-Cys)-Dap-Leu-Ile-NH2 | 99.22 |
| Ac-c(Cys-Pro-Pro-Tyr-NmeLeu-Pro-Dap-Tyr-Leu-Cys)-Dap-Leu-Ile-NH2 | 97.04 |
| Ac-c(Cys-Pro-Pro-Tyr-leu-Pro-Dap-Tyr-Leu-Cys)-Dap-CbuA-Ile-NH2 | 99.79 |
| Biotin-CPPYLPRRLCTLLLRS-OH (disulfide 1-10) | 98.11 |
| c(M6a-Tyr-Leu-Pro-Dap-Tyr-Leu-hmC)-Dap-Leu-Ile-NH2 | 97.95 |
| c(Mpa-NmeTyr-Leu-NmeGly-c(Cys)-Tyr-Leu-Cys)-Dap-Leu-Ile-NH2 | 95.3 |
| c(Mpa-NmeTyr-Leu-NmeGly-c(Cys)-Tyr-Leu-Cys)-Ser-Leu-Ile-NH2 | 96.87 |
| c(Mpa-NmeTyr-Lsu-Pro-c[Lys-Tyr-Leu-Cys)-Asp]-Leu-Ile-NH2 | 100 |
| c(Mpa-NmeTyt-Leu-Pro-c[Lys-Tyr-Leu-Cys)-Asp]-Leu-Ile-NH2 | 98.04 |
| c(Mpa-Pro-Pro-Tyr-Leu-Pro-c[Lys-Tyr-Leu-Cys)-Asp]-Leu-Ile-NH2 | 95.85 |
